Record: PubChem BioAssay AID1508588 (Peter MacCallum Cancer Centre, 2020)
Assay: 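Knock-downs boosting vemurafenib effects on melanoma cell growth or lactate release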 (primary screen). System: human WM266.4 melanoma cells (BRAF V600 mutant). Knock-down reagent: siRNA pool against human genes, 40 nM. Duration: 96 h from transfection to read-out. Treatment: vemurafenib 300 nM (about IC25), added 48 h after transfection, for 48 h; comparison arm got DMSO vehicle only. Measurement: 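Ratios to non-targeting siRNA for cell gain, counted as DAPI nuclei after minus before drug and averaged over two replicates, and for absorbance-read medium lactate per cell; both binned into fold-change classes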. Reading the numbers: cell gain with vemurafenib: higher = more cell gain than with non-targeting siRNA; lactate per cell with vemurafenib: higher = more lactate made per cell. Active means: 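a knock-down counts as enhancing when its fold-change classes with vehicle and with vemurafenib, taken together, show a stronger drug effect on cell gain or lactate per cell; exact class pairs not stated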. Calls: active = enhances vemurafenib effect; inactive = no enhancement seen.
This is a random part of about 18,000 deposited reagents. 790 of all reagents (4.4%) were called active. 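Calls rest on a combination of fold-change classes in drug and vehicle arms, not all shown here.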

target gene | cell gain with vemurafenib | lactate per cell with vemurafenib | call
MESP1 (GeneID 55897) | 0.99 | 0.73 | inactive
NPAS4 (GeneID 266743) | 0.72 | 0.75 | inactive
WASF3 (GeneID 10810) | 1.05 | 0.84 | inactive
SLC38A3 (GeneID 10991) | 0.2 | 0.12 | inactive
ZNF770 (GeneID 54989) | -0.06 | 1.54 | inactive
HCAR1 (GeneID 27198) | 1.03 | 1.05 | inactive
KLHL41 (GeneID 10324) | 0.74 | 0.64 | inactive
DKC1 (GeneID 1736) | 0.63 | 0.5 | inactive
BMERB1 (GeneID 89927) | 0.77 | 0.74 | inactive
LRP3 (GeneID 4037) | 0.15 | 2.27 | inactive
TEX26 (GeneID 122046) | 0.59 | 0.9 | inactive
MRPL37 (GeneID 51253) | 0.49 | 1.66 | inactive
LURAP1L (GeneID 286343) | 0.9 | 0.7 | inactive
ZNF2 (GeneID 7549) | 0.95 | 1.12 | inactive
DUSP22 (GeneID 56940) | 0.79 | 1.12 | inactive
ACP5 (GeneID 54) | 1.11 | 0.65 | inactive
SCCPDH (GeneID 51097) | 0.56 | 1.41 | inactive
PLEKHA6 (GeneID 22874) | 0.51 | 0.67 | inactive
SNAPC2 (GeneID 6618) | 0.62 | 0.56 | inactive
INMT (GeneID 11185) | 0.32 | 2.09 | inactive
AMDHD2 (GeneID 51005) | 0.46 | 1.7 | inactive
AP1AR (GeneID 55435) | 0.56 | 1.31 | inactive
AFAP1L1 (GeneID 134265) | 0.83 | 0.78 | inactive
DAAM1 (GeneID 23002) | 1.02 | 0.65 | inactive
MEGF9 (GeneID 1955) | 1.01 | 0.96 | inactive
SPATA6L (GeneID 55064) | 0.48 | 1.09 | inactive
KIF17 (GeneID 57576) | 0.6 | 0.91 | inactive
FBXO48 (GeneID 554251) | 0.53 | 1.29 | inactive
CD164L2 (GeneID 388611) | 0.24 | 1.27 | inactive
NAPB (GeneID 63908) | 0.35 | 0.42 | active
PIGW (GeneID 284098) | 0.22 | 1.03 | inactive
LCE1C (GeneID 353133) | 0.54 | 1.06 | inactive
ERP29 (GeneID 10961) | 0.27 | 0.93 | inactive
AKAP1 (GeneID 8165) | 0.44 | 0.78 | inactive
